# Laboratory results: the supplement of paper PMC10727501
# Structures can show the parent of a compound that is named as a salt. The list shows a part of the results. Repeats in this data set agree poorly, so a single value says little.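 Researchers measured free-swimming zebrafish larvae's O-bend response probability to dark flashes (naive: first five; training: remaining flashes of four 60-flash blocks; test: later 60-flash block) and OMR turning toward alternating leftward/rightward LED motion. Six treated larvae were compared to sixty 0.1% DMSO controls, with |SSMD|≥2 marking a hit.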
# Test system: Danio rerio larvae (5 dpf, TLF)
# Assay: OMR-Perf (SSMD vs DMSO vehicle); higher = higher than vehicle (e.g. higher dark-flash O-bend response probability, or better optomotor performance)
# Conditions: 10 µM; pre-incubation: 30-90 min
row,Structure (SMILES),OMR-Perf
1,Cc1cc(NC(=O)Nc2ccc(N(C)C)cc2)c2cc(F)cc(F)c2n1,0.329
2,O=C([O-])C[C@H](O)C[C@H](O)C=Cc1c(C2CC2)nc2ccccc2c1-c1ccc(F)cc1.O=C([O-])C[C@H](O)C[C@H](O)C=Cc1c(C2CC2)nc2ccccc2c1-c1ccc(F)cc1.[Ca+2] [Pitavastatin Calcium],-0.195
3,Oc1c(Cl)cc(Cl)c2cccnc12 [Chloroxine],-0.886
4,CN1CCN(c2c(F)cc3c(=O)c(C(=O)O)cn4c3c2OCN4C)CC1 [Marbofloxacin],-0.662
5,CCN1CCCC1CNC(=O)c1cc(S(=O)(=O)CC)c(N)cc1OC (stereo unspecified) [Amisulpride],-0.00364
6,Cc1c(-c2ccc(O)cc2)n(Cc2ccc(OCCN3CCCCCC3)cc2)c2ccc(O)cc12.Cl [Bazedoxifene HCl],0.526
7,Cc1cnc(Nc2ccc(N3CCN(C)CC3)cc2)nc1Nc1cccc(S(=O)(=O)NC(C)(C)C)c1,-0.199
8,CCN(CC)CCOC(=O)C1(C2CCCCC2)CCCCC1 [Dicyclomine HCl],0.0152
9,OC[C@@H](O)[C@@H](O)CO [Erythritol],-0.103
10,CC(C)CC(N)=O [Isovaleramide],-0.0499
11,C#Cc1cccc(Nc2ncnc3cc(OCCOC)c(OCCOC)cc23)c1 [Erlotinib HCl (OSI-744)],0.458

# Structural class, the entries above with four or more nitrogen atoms (3)
row,Structure (SMILES),OMR-Perf
1,Cc1cc(NC(=O)Nc2ccc(N(C)C)cc2)c2cc(F)cc(F)c2n1,0.329
4,CN1CCN(c2c(F)cc3c(=O)c(C(=O)O)cn4c3c2OCN4C)CC1 [Marbofloxacin],-0.662
7,Cc1cnc(Nc2ccc(N3CCN(C)CC3)cc2)nc1Nc1cccc(S(=O)(=O)NC(C)(C)C)c1,-0.199

# Test system: Danio rerio larvae (5 dpf, TLF)
# Assay: Prob-Test (SSMD vs DMSO vehicle); higher = higher than vehicle (e.g. higher dark-flash O-bend response probability, or better optomotor performance)
# Conditions: 10 µM; pre-incubation: 30-90 min
row,Structure (SMILES),Prob-Test
1,Cc1c(C(=O)Nc2ccc(N3CCC(N4CCOCC4)CC3)c(C#N)c2)cnn1-c1ccc(Cl)cc1,-1.26
2,COc1cc2ncnc(-n3nc(-c4ccccn4)nc3N)c2cc1OC,-0.474
3,CCN(CCO)CCCOc1ccc2c(Nc3cc(CC(=O)Nc4cccc(F)c4)n[nH]3)ncnc2c1 [Barasertib (AZD1152-HQPA)],0.171
4,NC(=O)c1cn(Cc2c(F)cccc2F)nn1 [Rufinamide],0.565
5,O=C(NC[C@H](O)CO)c1ccncc1Nc1ccc(I)cc1F,-1.57
6,S=c1nc[nH]c2nc[nH]c12 [Mercaptopurine (6-MP)],-0.0525
7,[I-].[K+] [Potassium Iodide],0.119
8,O=C(/C=C\n1cnc(-c2cc(C(F)(F)F)cc(C(F)(F)F)c2)n1)N1CC(F)(F)C1,-0.0814
9,C#C[C@@]1(O)CC[C@H]2[C@@H]3CCc4cc(OC)ccc4[C@@H]3CC[C@@]21C [Mestranol],-1.83
10,[NH2][Pt]([NH2])([Cl])[Cl] [Cisplatin],-0.0935
11,CCC(=O)OCC(=O)[C@]1(OC(=O)CC)[C@@H](C)C[C@H]2[C@@H]3CCC4=CC(=O)C=C[C@]4(C)[C@]3(F)[C@H](O)C[C@@]21C [Betamethasone Dipropionate (Diprolene)],-0.231
12,Cl.c1ccc(CN(CC2=NCCN2)c2ccccc2)cc1 [Antazoline HCl],-0.908
13,CN(C)C(=O)c1ccc(S(=O)(=O)c2ccc(NC(=O)C(C)(O)C(F)(F)F)c(Cl)c2)cc1 (stereo unspecified),0.231
14,c1ccc2c(Oc3nc(Nc4ccc(N5CCOCC5)cc4)c4ncn(C5CCCCC5)c4n3)cccc2c1 [Purmorphamine],-0.459
15,O=C(COc1ccc(C(=O)c2ccccc2)cc1)NC1CCN(Cc2ccccc2)CC1 [AdipoRon],-1.25
16,"C[C@@H](CN1CC(=O)NC(=O)C1)N1CC(=O)NC(=O)C1.Cl [Dexrazoxane HCl (ICRF-187, ADR-529)]",-0.322
17,CCOC(=O)C1=C[C@@]2(CC)CCCN3CCc4c(n1c1ccccc41)[C@@H]32 [Vinpocetine (Cavinton)],-0.998
18,C[C@H](CCC(=O)O)[C@@H]1CC[C@H]2[C@@H]3C[C@H](O)[C@@H]4C[C@H](O)CC[C@]4(C)[C@@H]3CC[C@@]21C [Hyodeoxycholic acid (HDCA)],0.12
19,C#CCC(Cc1cnc2nc(N)nc(N)c2n1)c1ccc(C(=O)N[C@@H](CCC(=O)O)C(=O)O)cc1 (stereo partly specified) [Pralatrexate],-0.457
20,CNC(=O)c1cc(Oc2ccc(NC(=O)Nc3cc(C(C)(C)C)nn3-c3ccc4ncccc4c3)c(F)c2)ccn1 [DCC-2036 (Rebastinib)],0.381
